In publication PMC5461490 one finds binding data, which are given here for 1 substance.

Sequences of proteins named here, by UniProt entry; tags and fusion partners are left off. Residues count along the entry.
UniProt P06241: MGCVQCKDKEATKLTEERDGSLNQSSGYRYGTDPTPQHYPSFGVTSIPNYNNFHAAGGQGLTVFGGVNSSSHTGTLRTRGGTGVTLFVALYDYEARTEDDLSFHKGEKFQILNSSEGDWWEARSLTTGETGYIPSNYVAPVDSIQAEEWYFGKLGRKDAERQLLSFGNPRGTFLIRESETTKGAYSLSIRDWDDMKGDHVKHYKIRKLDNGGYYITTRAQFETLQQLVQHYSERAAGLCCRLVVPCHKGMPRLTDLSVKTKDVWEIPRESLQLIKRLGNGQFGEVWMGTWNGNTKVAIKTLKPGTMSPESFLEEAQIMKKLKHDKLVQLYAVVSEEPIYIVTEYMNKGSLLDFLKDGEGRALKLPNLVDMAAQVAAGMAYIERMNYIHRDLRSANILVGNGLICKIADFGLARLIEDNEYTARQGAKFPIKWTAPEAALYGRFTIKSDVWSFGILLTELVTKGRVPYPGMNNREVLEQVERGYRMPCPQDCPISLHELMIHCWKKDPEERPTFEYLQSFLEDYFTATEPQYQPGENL
UniProt P23471, residues 25-2315: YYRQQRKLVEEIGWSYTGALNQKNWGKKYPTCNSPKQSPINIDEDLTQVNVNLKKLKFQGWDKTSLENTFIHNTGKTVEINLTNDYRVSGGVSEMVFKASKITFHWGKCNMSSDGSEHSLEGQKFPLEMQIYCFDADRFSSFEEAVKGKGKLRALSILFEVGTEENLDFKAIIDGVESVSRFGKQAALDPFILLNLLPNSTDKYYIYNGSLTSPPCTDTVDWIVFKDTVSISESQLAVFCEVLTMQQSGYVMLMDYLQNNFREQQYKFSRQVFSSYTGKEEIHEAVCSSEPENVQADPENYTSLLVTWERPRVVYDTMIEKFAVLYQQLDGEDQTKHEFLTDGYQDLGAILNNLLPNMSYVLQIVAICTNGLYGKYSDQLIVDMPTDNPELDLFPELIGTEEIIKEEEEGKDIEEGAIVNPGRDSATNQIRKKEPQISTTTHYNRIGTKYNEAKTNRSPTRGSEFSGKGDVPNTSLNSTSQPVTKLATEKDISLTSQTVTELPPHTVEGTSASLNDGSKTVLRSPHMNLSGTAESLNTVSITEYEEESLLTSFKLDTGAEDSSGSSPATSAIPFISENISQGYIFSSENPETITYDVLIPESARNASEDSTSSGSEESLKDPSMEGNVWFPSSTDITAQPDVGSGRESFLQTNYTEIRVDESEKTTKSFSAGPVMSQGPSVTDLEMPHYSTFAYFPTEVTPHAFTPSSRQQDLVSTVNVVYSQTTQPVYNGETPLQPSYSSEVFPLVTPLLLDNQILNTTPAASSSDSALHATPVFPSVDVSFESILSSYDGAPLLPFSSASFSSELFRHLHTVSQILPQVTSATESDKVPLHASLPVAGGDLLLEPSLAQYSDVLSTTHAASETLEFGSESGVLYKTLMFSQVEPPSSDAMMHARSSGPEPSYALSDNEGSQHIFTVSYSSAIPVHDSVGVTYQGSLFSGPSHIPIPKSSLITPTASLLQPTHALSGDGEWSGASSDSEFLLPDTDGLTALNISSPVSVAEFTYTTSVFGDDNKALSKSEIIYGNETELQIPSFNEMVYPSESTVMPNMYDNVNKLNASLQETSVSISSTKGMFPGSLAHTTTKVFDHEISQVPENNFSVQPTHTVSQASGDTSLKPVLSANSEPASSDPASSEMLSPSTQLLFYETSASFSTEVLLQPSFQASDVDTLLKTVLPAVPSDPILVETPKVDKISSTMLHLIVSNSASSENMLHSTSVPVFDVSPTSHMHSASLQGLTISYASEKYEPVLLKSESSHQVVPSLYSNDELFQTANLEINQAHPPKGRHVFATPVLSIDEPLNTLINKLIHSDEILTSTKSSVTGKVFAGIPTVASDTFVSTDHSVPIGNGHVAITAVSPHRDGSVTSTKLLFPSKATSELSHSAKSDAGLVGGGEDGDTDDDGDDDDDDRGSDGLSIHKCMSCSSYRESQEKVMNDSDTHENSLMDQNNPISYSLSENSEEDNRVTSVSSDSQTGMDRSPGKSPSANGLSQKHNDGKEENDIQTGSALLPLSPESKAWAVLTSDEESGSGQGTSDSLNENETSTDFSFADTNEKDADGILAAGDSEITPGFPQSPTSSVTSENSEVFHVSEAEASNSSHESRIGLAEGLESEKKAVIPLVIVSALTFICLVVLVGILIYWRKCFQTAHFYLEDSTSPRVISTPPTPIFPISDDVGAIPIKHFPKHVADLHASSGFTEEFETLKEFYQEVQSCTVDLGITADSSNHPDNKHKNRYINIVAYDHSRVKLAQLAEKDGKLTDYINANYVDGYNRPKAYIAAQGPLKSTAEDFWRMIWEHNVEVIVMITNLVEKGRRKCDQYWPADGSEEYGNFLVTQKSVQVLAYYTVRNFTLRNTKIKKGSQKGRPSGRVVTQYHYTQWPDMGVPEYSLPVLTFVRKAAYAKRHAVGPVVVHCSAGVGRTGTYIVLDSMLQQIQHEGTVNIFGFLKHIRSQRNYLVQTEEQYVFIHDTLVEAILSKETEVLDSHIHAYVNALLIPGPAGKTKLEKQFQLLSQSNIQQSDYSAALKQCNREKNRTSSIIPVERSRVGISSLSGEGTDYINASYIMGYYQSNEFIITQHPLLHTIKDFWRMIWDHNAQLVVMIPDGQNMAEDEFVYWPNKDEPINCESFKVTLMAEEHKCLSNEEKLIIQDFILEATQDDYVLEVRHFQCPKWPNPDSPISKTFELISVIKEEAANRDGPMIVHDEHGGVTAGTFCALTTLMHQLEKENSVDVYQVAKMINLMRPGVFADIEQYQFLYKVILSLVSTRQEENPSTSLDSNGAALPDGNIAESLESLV

The assay deals with Fyn (human (endogenous in GSCs isolated from human GBM)) (UniProt P06241). Nature of the assay: co-IP; lysates of T387 and T0912 GSCs (50 mM Tris-HCl pH 7.4, 150 mM NaCl, 5 mM EDTA, 10% glycerol, 1% NP-40); 500 ug protein with anti-Fyn antibody (Santa Cruz, sc-16) and Protein A/G Plus Agarose, 14 h at 4 C; washed four times with 0.1% Triton-100 in PBS; blot for PTPRZ1; normal rabbit IgG as negative control.

These are yes or no findings as the source states them, for the method shown. Binding seen in cells or lysates may run through a third protein. Some binding calls cover weakened binding; strength is not graded here.

On to “protein tyrosine phosphatase, receptor-type, Z polypeptide 1 (PTPRZ1) (from UniProt P23471 25-2315)”, for which the binding result is on record as “binds”.
